Counter-ions that a name gives are not always drawn.
Tested on: BT-474 tumor-bearing nude mice

Structure (SMILES)	decrease in 177Lu-AMBA binding (tumor GRP receptor specific signal) over control tumor values (25 mg/kg, day 14, estradiol supplemented (0.6 mg/kg) BT-474 tumor bearing mice, 1 h, P<0.05)	177Lu-AMBA in Blood (% ID) (1 hr, + Tamoxifen/+ ES, control 0.14 ± 0.06)	177Lu-AMBA in Kidneys (% ID) (1 hr, + Tamoxifen/+ ES, control 2.69 ± 0.28)	177Lu-AMBA in Gastrointestinal (% ID) (1 hr, + Tamoxifen/+ ES, control 11.93 ± 0.43)	177Lu-AMBA in Pancreas (% ID) (1 hr, + Tamoxifen/+ ES, control 12.50 ± 0.67)	177Lu-AMBA in Bladder/urine (% ID) (1 hr, + Tamoxifen/+ ES, control 42.79 ± 1.58)
CC/C(=C(\c1ccccc1)c1ccc(OCCN(C)C)cc1)c1ccccc1 [Tamoxifen citrate, reference compound]	68%	–	–	–	–	–
CC/C(=C(\c1ccccc1)c1ccc(OCCN(C)C)cc1)c1ccccc1 [Tamoxifen]	–	0.13 ± 0.05 % ID	2.30 ± 0.88 % ID	10.93 ± 3.19 % ID	9.81 ± 2.83 % ID	54.82 ± 6.54 % ID

Reference: patent US20130136691A1, “GASTRIN […] PEPTIDE COMPOUNDS” (priority 2008, published 2013)
